Measurements reported in US20240398790A1 (ABBVIE INC., priority 2021, published 2024).

Test system: adult subjects with active ankylosing spondylitis (AS) who had an inadequate response to biologic disease-modifying anti-rheumatic drug therapy (bDMARD-IR)
Test: SELECT AXIS 2 Study 1, safety up to Week 14
Conditions: 15 mg QD, percentage based upon the FAS

CC[C@@H]1CN(C(=O)NCC(F)(F)F)C[C@@H]1c1cnc2cnc3[nH]ccc3n12 [upadacitinib, (3S,4R)-3-ethyl-4-(3H-imidazo[1,2-a]pyrrolo[2,3-e]pyrazin-8-yl)-N-(2,2,2-trifluoroethyl)pyrrolidine-1-carboxamide]
Prematurely Discontinued Study Drug by Week 14, %: (2.4) %
Prematurely Discontinued Study Drug by Week 14, primary reason Lack of Efficacy, %: (0.5) %
